Results are given in words; binding and its absence hold for the method and conditions named. In cells and extracts the contact can be indirect. Here binding means that the protein was enriched with, or labelled near, the bait; the list need not be complete. No binding means not detected with the bait. Tags and fused reporters may be left off the sequences shown.

This assay deals with T1, HA-SDE2UBL-PA activity-based probe (human) (UniProt Q6IQ49).
T1 sequence (chain, C-terminal propargylamide, Gly77 replaced with a propargyl electrophilic warhead): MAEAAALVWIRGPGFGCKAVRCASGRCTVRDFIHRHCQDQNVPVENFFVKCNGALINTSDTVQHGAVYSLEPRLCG
Put plainly: affinity purification with mass spectrometry; HEK293 lysate with 1 µM HA-SDE2UBL-PA, anti-HA immunoprecipitation, trypsin digestion, DIA proteomics against a no-probe control, triplicate; only the target purified.

B1: endogenous USP13 of HEK293 cell lysate (enzyme, UniProt Q92995 1-863)
chain: MQRRGALFGMPGGSGGRKMAAGDIGELLVPHMPTIRVPRSGDRVYKNECAFSYDSPNSEGGLYVCMNTFLAFGREHVERHFRKTGQSVYMHLKRHVREKVRGASGGALPKRRNSKIFLDLDTDDDLNSDDYEYEDEAKLVIFPDHYEIALPNIEELPALVTIACDAVLSSKSPYRKQDPDTWENELPVSKYANNLTQLDNGVRIPPSGWKCARCDLRENLWLNLTDGSVLCGKWFFDSSGGNGHALEHYRDMGYPLAVKLGTITPDGADVYSFQEEEPVLDPHLAKHLAHFGIDMLHMHGTENGLQDNDIKLRVSEWEVIQESGTKLKPMYGPGYTGLKNLGNSCYLSSVMQAIFSIPEFQRAYVGNLPRIFDYSPLDPTQDFNTQMTKLGHGLLSGQYSKPPVKSELIEQVMKEEHKPQQNGISPRMFKAFVSKSHPEFSSNRQQDAQEFFLHLVNLVERNRIGSENPSDVFRFLVEERIQCCQTRKVRYTERVDYLMQLPVAMEAATNKDELIAYELTRREAEANRRPLPELVRAKIPFSACLQAFSEPENVDDFWSSALQAKSAGVKTSRFASFPEYLVVQIKKFTFGLDWVPKKFDVSIDMPDLLDINHLRARGLQPGEEELPDISPPIVIPDDSKDRLMNQLIDPSDIDESSVMQLAEMGFPLEACRKAVYFTGNMGAEVAFNWIIVHMEEPDFAEPLTMPGYGGAASAGASVFGASGLDNQPPEEIVAIITSMGFQRNQAIQALRATNNNLERALDWIFSHPEFEEDSDFVIEMENNANANIISEAKPEGPRVKDGSGTYELFAFISHMGTSTMSGHYICHIKKEGRWVIYNDHKVCASERPPKDLGYMYFYRRIPS
With B1, the binding result is on record as “no binding (tested: probe 1 µM)”.
